Measured values published in patent publication US8012711B2, “Methods of screening for compounds that reduce microbial resistance to fluoroquinolones” (priority 1999, dated 2011).
Like-named read-outs stand apart in the source and are kept apart here.

Test system: Escherichia coli K-12 AG100, AG112 and derived fluoroquinolone-resistant mutants (wild-type acrAB)
Settings: for Accumulation of CIP into whole energized cells: 10 μM CIP; for CIP accumulation, % of wild-type: vs AG100

O=C(O)c1cn(C2CC2)c2cc(N3CCNCC3)c(F)cc2c1=O [CIP, ciprofloxacin]
CIP accumulated by energized cells and increase after deenergization, compared with parental strain (first step mutants 1-AG100 and 1′-AG112 vs AG100 and AG112): virtually identical | Accumulation of CIP into whole energized cells (strain 1′-AG112, energized): 57 pmol CIP/ODU600 | CIP accumulation, % of wild-type (strain 1′-AG112, energized): 55 % of wild-type | Accumulation of CIP into whole energized cells (strain 2°-AG100, energized): 65 pmol CIP/ODU600 | CIP accumulation, % of wild-type (strain 2°-AG100, energized): 63 % of wild-type | Accumulation of CIP into whole energized cells (strain 2′-AG112, energized): 26 pmol CIP/ODU600 | CIP accumulation, % of wild-type (strain 2′-AG112, energized): 25 % of wild-type | Accumulation of CIP into whole energized cells (strain 3*-AG100, energized): 16 pmol CIP/ODU600 | CIP accumulation, % of wild-type (strain 3*-AG100, energized): 16 % of wild-type | Accumulation of CIP into whole energized cells (strain 3′-AG112, energized): 26 pmol CIP/ODU600 | CIP accumulation, % of wild-type (strain 3′-AG112, energized): 25 % of wild-type | Accumulation of CIP into whole energized cells (strain 4*-AG100, energized): 20 pmol CIP/ODU600 | CIP accumulation, % of wild-type (strain 4*-AG100, energized): 19 % of wild-type | Accumulation of [14C-]ciprofloxacin after 200 μM CCCP (strain AG100, de-energized with 200 μM CCCP): 201 pmol CIP/ODU600 | Accumulation of CIP into whole energized cells (strain AG100, energized): 103 pmol CIP/ODU600 | Accumulation of [14C-]ciprofloxacin after CCCP (strain AG112, de-energized with CCCP): 226 pmol CIP/ODU600 | Accumulation of CIP into whole energized cells (strain AG112, energized): 56 pmol CIP/ODU600 | CIP accumulation, % of wild-type (strain AG112, energized): 54 % of wild-type
